## Library screen at single concentrations

Data taken from ChEMBL document CHEMBL3988442, “University of Dundee, Small-Polar-MMV Screening Library” (2021).

A: 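Phenotypic screen: M. tuberculosis growth, cholesterol and DPPC medium, 4 days; the read-out is not stated. Tested at 50 µM. Direction is inferred from retests: higher values go with more growth inhibition. Size under these conditions: about 69,000 compounds, about 370 of them at 50% or above in at least one test.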
B: 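Growth of Mycobacterium tuberculosis over 3 days (7H9 medium with glucose and tyloxapol); the read-out is not stated. Tested at 50 µM. Direction is inferred from retests: higher values go with more growth inhibition. Of about 69,000 compounds tested this way, about 760 (1.1%) reached 50% or more in at least one test.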

Results are given as percent effect. The controls that fix the scale are not given in the record; negative values are as filed. Compounds were drawn at random from those tested, without regard to their results. Two or more numbers in one place are separate tests of the same structure; such repeats can differ widely.

| SMILES | A | B |
|---|---|---|
| `CN1CCCN(C(=O)c2cc3c(s2)CCN3C(=O)C2CC2)CC1` | -15.67 | 9.894 |
| `Fc1cccc(N2CCCC3(C2)CN(c2ncccn2)CCO3)c1.O=C(O)C(F)(F)F.O=C(O)C(F)(F)F` (stereo not drawn) | -18.72 | 7.036 |
| `CN1CCN(c2ncnc3c2CCN(C(=O)c2cccn2C)CC3)CC1` | -17.81 & -8.377 | -10.35 |
| `Cn1ccnc1-c1ccc(NC[C@H]2CCc3ccccc3O2)nn1` | 21.54 | 47.52 |
| `CCSc1ccc(NC(=O)NC(C)c2c(C)noc2C)cn1` (stereo not drawn) | -6.698 | 7.341 |
| `Cc1cnc(C)c(N2CCN(CCCc3ccncc3)CC2)n1` | -1.065 | -31.34 |
| `CC1CCN(S(=O)(=O)NCc2ccccc2Cn2cccn2)CC1` | -41.4 | 10.06 |
| `O=C(Nc1cc(C(F)(F)F)c[nH]c1=O)C1CCCN1` (stereo not drawn) | -2.587 | 15.87 |
| `Cc1nn(C)c(=O)c2nn(-c3ccc(Cl)cc3)c(C)c12` | -1.364 | -12.98 & 4.743 |
| `Cc1csc(N2CCN(C(=O)C(C)n3cncn3)CC2)n1` (stereo not drawn) | 2.228 | -3.237 & -33.72 |
| `CCc1ccc(CN2CCCCC2c2n[nH]cc2-c2cc(C)no2)cc1.Cl` (stereo not drawn) | -0.3412 | 10.42 |
| `CC(=O)N1CCCC(c2nnc3n2CCN(C(=O)C2CCCCC2)C3)C1` (stereo not drawn) | -26.34 & -0.3424 | 16.55 |
| `CCCC1c2cccn2CCN1C(=O)c1cc(CC)no1` (stereo not drawn) | -9.155 | -21.41 |
| `Cn1cc(-c2csc(N3CCN(c4nccs4)CC3)n2)cn1` | -6.281 | 37.18 |
| `CCc1ccc(CNC(=O)NC(C)CN2CCOCC2)s1` (stereo not drawn) | -4.719 | 12.37 & -2.2 |
| `CC1(c2nccs2)CCN(C(=O)CCN2CCOCC2)CC1` | 12.21 & -18.9 | -9.686 |
| `Cc1ccsc1C1CC(=O)Nc2c1cnn2C(C)C` (stereo not drawn) | 5.941 | 34.88 |
| `COc1cc(C(=O)NC(C)(C)CN2CCN(C)CC2)c2ccccc2n1` | 21.66 & 5.574 | -25.49 |
| `CC(=O)Nc1ccc(-c2ccccc2NC(=O)CN)cc1` | -54.88 | -48.48 |
| `NC(=O)CN1CC2(CCC1=O)CCN(Cc1ccc(F)cc1Cl)CC2` | -2.675 & 5.857 | 11 |
| `COCCN(Cc1cccs1)C(=O)C1CCCN(C(N)=O)C1` (stereo not drawn) | -36.34 | 4.409 & -54.27 |
| `O=C(NCCNc1cc(-n2cccc2)ncn1)c1cccs1` | 11.13 | 8.488 & 1.121 |
| `CN(CCc1nc(-c2cccc(Cl)c2)no1)CCn1cccn1` | 39.73 | 49.84 & 47.7 |
| `Cc1nccn1C1CCCN(C(=O)COCC(F)(F)F)C1` (stereo not drawn) | -2.389 | -9.411 |
| `CCn1ncc(C(=O)NCCc2nc(-c3ccncc3)n[nH]2)c1C` | 20.5 | 7.568 |
| `CC(C)c1cc(N2CCC3(CC2)CN(C)CCN3C)ncn1` | 13.1 | -20.44 & 0.4807 |
| `CCOCc1ccc(CNC(=O)N2CCC(C(N)=O)C2)cc1` (stereo not drawn) | -16.17 | -16.2 |
| `COCC(=O)N1CCC2(CC1)COCCN2Cc1ccc(F)cc1.O=C(O)C(F)(F)F` | -14.64 | 5.077 |
| `CN(C)CCNCC1CCOC(C)(C)C1` (stereo not drawn) | -33.74 | -31.59 |
| `COCCCN1CCCC(c2nccn2CC2CCC2)C1` (stereo not drawn) | 7.361 | -5.785 |
| `CCOC(=O)CC(c1ccc(OC)cc1)c1c(O)n[nH]c1C` (stereo not drawn) | 0.9442 | -0.3817 & -10.66 |
| `COc1cc(C)nc(N2CCN(C(=O)CCc3ccncc3)CC2)n1` | 0.3345 & -5.875 | -37.24 |
| `CN(C)C(=O)c1cn2cc(-c3ccccc3Cl)n(CC3CC3)c(=O)c2n1` | -2.305 | -22.71 |
| `NC(=O)C(Nc1cccc(CO)c1)c1ccc(Br)cc1` (stereo not drawn) | -3.149 | -18.42 & 4.888 |
| `CCc1noc(C(C)N2CCN(Cc3cnc(C)cn3)CC2)n1` (stereo not drawn) | -20.92 | -27.21 |
| `O=c1cc(Cn2cncn2)nc2n1CCCN(CC1CCOCC1)C2` | -18.7 | -28.14 |
| `CC(=O)c1cc(Br)cc(F)c1OCC(=O)NC1CC1` | -1 | 9.884 |
| `CC(=O)Nc1nc(C(=O)N2CCCC2Cn2cccn2)cs1` (stereo not drawn) | -0.878 | 8.623 |
| `CC(C)c1nn(C)c(N(C)C)c1CNCC(O)c1ccccc1F` (stereo not drawn) | -21.45 | -16.38 |
| `CCNc1ccnc(NC2CCN(S(C)(=O)=O)CC2)n1` | -13.36 | 6.951 |
| `Cc1cc2c(=O)n3c(nc2s1)CCN(Cc1c[nH]cn1)CC3.Cl` | -1.496 | -7.521 |
| `Cc1noc(C)c1CN1CCCC1c1nc(-c2ccccc2)no1` (stereo not drawn) | -15.58 | 0.9665 |
| `O=C(O)C(F)(F)F.O=C(O)C(F)(F)F.O=C(O)C(F)(F)F.[H][C@@]12OCCN(Cc3cccc(C)n3)[C@@]1([H])CC[C@H]2Oc1ccccn1` | 21.04 | 18.57 & 31.19 |
| `CC(NC(=O)NCc1ccc(Cl)cc1)c1ccccn1` (stereo not drawn) | -18.69 | 21.86 |
| `CNc1snc(C)c1C(=O)N1CCCC(n2ccnc2)C1` (stereo not drawn) | 14.6 | 17.96 |
| `NC(=O)CC1CCN(c2cncc(OCc3ccccc3)n2)CC1` | 6.305 | 21.35 |
| `O=C(NCC1(CO)CC1)c1cccc2ccccc12` | -15.93 | -6.662 & 1.234 |
| `CCN1C(=O)CCC12CCN(S(=O)(=O)c1ccc(C#N)cc1)CC2` | 1.474 | -22.97 |
| `COc1c(C2CCCN2Cc2noc(C(C)C)n2)c(C)nn1C` (stereo not drawn) | -48.42 | 5.969 |
| `CCn1ccnc1CN1CCCN(C(=O)Cc2ccc(C)s2)CC1` | 2.55 | -5.929 |
| `O=C(c1cc2c([nH]c1=O)CCC2)N1CCCCC1c1cccc(F)c1` (stereo not drawn) | -10.5 | -9.003 |
| `CCOCC(=O)N1CCC2(CC1)COCCN2CCN(C)C.O=C(O)C(F)(F)F.O=C(O)C(F)(F)F` | -17.93 | 12.33 |
| `CCN(CC)S(=O)(=O)N(C)Cc1ccncc1` | -1.037 | 11.19 |
| `CN1CCN(C(=O)C2(NC(N)=O)CCCCC2)Cc2ccccc21` | -7.613 | 8.154 & -10.17 |
| `[H][C@]12CCCC(=O)N[C@@]1(C)CCCCN2C(=O)c1cn2c(C)cccc2n1` | -8.722 | -12.43 |
| `O=C(c1ccn(-c2ccc(F)cc2)n1)N1CCCC(n2ccnc2)C1` (stereo not drawn) | 12.22 | 24.06 & 10.35 |
| `COc1cc(-c2n[nH]c(CCN)n2)cc(OC)c1OC` | -7.761 | -20.47 |
| `O=C(CN1CCS(=O)(=O)CC1)NC1CCCCc2ccccc21` (stereo not drawn) | -9.645 | 8.682 |
| `COc1cccc(CN2CCC3(CCN(c4ncc(C)cn4)CC3)C2)c1.O=C(O)C(F)(F)F` | 18.52 | 12.59 & 9.109 |
| `O=C(Nc1ccccn1)c1csc(NC2CCCC2)n1` | 41.73 | 35.58 & 48.73 |
| `Cn1cnnc1C1CCCN(C(=O)NCCNc2ccccn2)C1` (stereo not drawn) | -19.57 | 0.9074 |

The last 6 entries again:

- O=C(c1ccn(-c2ccc(F)cc2)n1)N1CCCC(n2ccnc2)C1 (stereo not drawn) | A: 12.22%; B: 24.06% & 10.35%
- COc1cc(-c2n[nH]c(CCN)n2)cc(OC)c1OC | A: -7.761%; B: -20.47%
- O=C(CN1CCS(=O)(=O)CC1)NC1CCCCc2ccccc21 (stereo not drawn) | A: -9.645%; B: 8.682%
- COc1cccc(CN2CCC3(CCN(c4ncc(C)cn4)CC3)C2)c1.O=C(O)C(F)(F)F | A: 18.52%; B: 12.59% & 9.109%
- O=C(Nc1ccccn1)c1csc(NC2CCCC2)n1 | A: 41.73%; B: 35.58% & 48.73%
- Cn1cnnc1C1CCCN(C(=O)NCCNc2ccccn2)C1 (stereo not drawn) | A: -19.57%; B: 0.9074%